The text below walks through data of PubChem BioAssay AID192 (DTP/NCI, 2004).

The list shows only some results of the screen, not a fair sample: it is rich in T/C values a quarter to a half above the control, in often repeated tests (any T/C) and in doses without a T/C. Further doses and runs are listed elsewhere. T/C: endpoint of the treated group in % of that of the vehicle group. Some doses have a count of surviving animals in place of a T/C: the source holds a T/C of zero for them, seemingly a mark for toxic or unscored doses. Some doses without a T/C left all or most animals alive at the check, yet need not have been tolerated: survival well below the control is almost never listed, so the zero probably covers shortened survival too. Survivors were counted at the toxicity check, usually on the fifth day, unless a day is given; later deaths do not show. Schedule codes are those of the source, read here as Q, the interval in days (D) or hours (H), X, the number of doses. Some entries were tested several times; the values are given in rising order. Where survival is the endpoint, this PubChem deposit counts one and a half times the control or more as active, and values a quarter to a half above the control carry no call in these data; other NCI protocols may use other cut-offs. Additions like (4×) give the number of equal values in this list. Some T/C values are followed by the survivors on the day toxicity was checked, most often the fifth; where none is given, no animal had died by that day. Square brackets hold non-standard residues; d marks the D form. Peptide text beside a SMILES is read from it. * marks the point of attachment. Cbz = O=C(OCc1ccccc1)*; Nva = CCC[CH](N)C(=O)O

The test system of this assay is BDF1 mice, B16 melanoma ip, median survival T/C. The experiment in a line: NCI In Vivo Anticancer Drug Screen. Data for tumor model B16 Melanoma (intraperitoneal) in B6D2F1 (BDF1) mice. Conditions: T/C endpoint: median survival time, higher T/C = longer survival. In a few lines: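 Values are ratios of treated (T) to vehicle-control (C) measurements of survival or tumor size in tumor-bearing mice.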

[1] abbreviates: dose: 100.0 mg/kg/injection, schedule: Q01DX009 (ip), vehicle: Klucel (hydroxypropylcellulose) (HPC).
The mark [2] stands for this setting: dose: 200.0 mg/kg/injection, schedule: Q01DX009 (ip), vehicle: Klucel (hydroxypropylcellulose) (HPC).
[3] abbreviates: dose: 400.0 mg/kg/injection, schedule: Q01DX009 (ip), vehicle: Klucel (hydroxypropylcellulose) (HPC).
Where [4] appears, read: dose: 100.0 mg/kg/injection, schedule: Q01DX009 (ip), vehicle: saline.
The mark [5] stands for this setting: dose: 25.0 mg/kg/injection, schedule: Q01DX009 (ip), vehicle: Klucel (hydroxypropylcellulose) (HPC).
[6] abbreviates: dose: 50.0 mg/kg/injection, schedule: Q01DX009 (ip), vehicle: Klucel (hydroxypropylcellulose) (HPC).
[7] abbreviates: dose: 200.0 mg/kg/injection, schedule: Q04DX003 (ip), vehicle: saline with Tween-80.
Setting [8] is: dose: 25.0 mg/kg/injection, schedule: Q01DX009 (ip), vehicle: other.
[9] abbreviates: dose: 400.0 mg/kg/injection, schedule: Q01DX009 (ip), vehicle: saline with Tween-80.

Consider `Oc1nc(/N=C2/N=c3ccc(Cl)cc3=N2)[nH]c1O`, for which the survivor count by setting is: under setting [1], 9 of 10; under setting [2], 7 of 10; under setting [3], 7 of 10.
For the compound `CC(CN1c2ccccc2Sc2cccnc21)N(C)C` (stereo not drawn), the survivor count under setting [4] is 0 of 10; the survivor count (dose: 200.0 mg/kg/injection, schedule: Q01DX009 (ip), vehicle: saline) is 0 of 10; the survivor count (dose: 400.0 mg/kg/injection, schedule: Q01DX009 (ip), vehicle: saline) is 0 of 10.
Consider `C(=P(c1ccccc1)(c1ccccc1)c1ccccc1)[P+](c1ccccc1)(c1ccccc1)c1ccccc1`, for which the T/C is 133 % of control (dose: 1.56 mg/kg/injection, schedule: Q01DX009 (ip), vehicle: suspension in saline); 138 % of control (dose: 3.12 mg/kg/injection, schedule: Q01DX009 (ip), vehicle: suspension in saline); 132 % of control (dose: 6.25 mg/kg/injection, schedule: Q01DX009 (ip), vehicle: Klucel (hydroxypropylcellulose) (HPC)). Moreover, the survivor count is listed as 8 of 10 (dose: 12.5 mg/kg/injection, schedule: Q01DX009 (ip), vehicle: Klucel (hydroxypropylcellulose) (HPC)); 9 of 10 (dose: 12.5 mg/kg/injection, schedule: Q01DX009 (ip), vehicle: suspension in saline); 5 of 10 under setting [5]; 0 of 10 under setting [6].
`CCOC(=O)/C=C/c1ccc2c(c1)OCO2`: the T/C (dose: 100.0 mg/kg/injection, schedule: Q04DX003 (ip), vehicle: saline with Tween-80) was 143 % of control; the T/C under setting [7] is 133 % of control; the T/C (dose: 400.0 mg/kg/injection, schedule: Q04DX003 (ip), vehicle: saline with Tween-80) was 125 % of control [9 of 10 alive].
With `O=S1(=O)C=CCCC=C1`, the survivor count was 0 of 10 under setting [1] and 0 of 10 under setting [2].
`CC(=O)[O][Sn]([CH2]c1ccccc1)([CH2]c1ccccc1)[CH2]c1ccccc1`: the survivor count reads like this: (dose: 12.5 mg/kg/injection, schedule: Q01DX009 (ip), vehicle: other) 10 of 10; under setting [8], 9 of 10.
Turning to `C[n+]1cc2c3ccccc3c(N)cc2c2ccccc21`, the T/C (dose: 6.25 mg/kg/injection, schedule: Q01DX009 (ip), vehicle: saline) is 126 % of control; the T/C (dose: 12.5 mg/kg/injection, schedule: Q01DX009 (ip), vehicle: saline) is 144 % of control; the T/C (dose: 25.0 mg/kg/injection, schedule: Q01DX009 (ip), vehicle: saline) was 132 % of control. Besides, the survivor count reads like this: (dose: 50.0 mg/kg/injection, schedule: Q01DX009 (ip), vehicle: saline) 7 of 7; under setting [4], 7 of 7.
As for `O=c1c(O)c(-c2cc(O)c(O)c(O)c2)oc2cc(O)cc(O)c12`, the survivor count is, setting by setting: (dose: 200.0 mg/kg/injection, schedule: Q02DX009 (ip), vehicle: saline with Tween-80) 10 of 10; (dose: 400.0 mg/kg/injection, schedule: Q02DX009 (ip), vehicle: saline with Tween-80) 10 of 10.
As to `CCCCCCC1CCC(N)CC1` (stereo not drawn), the survivor count reads like this: under setting [5], 10 of 10; under setting [6], 10 of 10.
For the compound `C=CCNc1ccc(C)cc1`, the survivor count under setting [2] was 4 of 10.
In the case of `COC(=O)C1C(O)C(C)C(=O)C(C)/C=C\C=C(C)C(=O)Nc2c(C)c(OC(C)=O)c3c(c2O)C(=O)C(C)=C2OCOC(=C23)C(C)=CC(C)(O)C(O)C(C)C1O` (stereo not drawn), the survivor count under setting [3] was 5 of 6.
With `Cc1cc(C)nc(NC(=O)COc2ccc(Cl)cc2)c1`, the survivor count runs as follows: under setting [5], 9 of 10; under setting [1], 9 of 10; under setting [2], 7 of 10.
`CCOC(=O)C1(C)C=C(Nc2ccc(OC)cc2)C(=O)N1c1ccc(OC)cc1` (stereo not drawn): the survivor count is, setting by setting: under setting [5], 10 of 10; under setting [6], 9 of 10; under setting [1], 9 of 10; under setting [2], 7 of 10; under setting [3], 2 of 10.
As for `ClC1C(Cl)C(Cl)C(Cl)C(Cl)C1Cl` (stereo not drawn), the survivor count runs as follows: (dose: 100.0 mg/kg/injection, schedule: Q01DX009 (ip), vehicle: saline with Tween-80) 10 of 10; under setting [3], 10 of 10.
Take `Cc1cc(N(CC(C)Br)CC(C)Br)ccc1N=Nc1ccccc1C(=O)O` (stereo not drawn): the T/C runs as follows: (dose: 1.56 mg/kg/injection, schedule: Q01DX009 (ip), vehicle: saline with Tween-80) 134 % of control; (dose: 3.12 mg/kg/injection, schedule: Q01DX009 (ip), vehicle: saline with Tween-80) 140 % of control; (dose: 6.25 mg/kg/injection, schedule: Q01DX009 (ip), vehicle: saline with Tween-80) 133, 144 [9 of 10 alive], 147 % of control. For the same compound, the survivor count by setting is: (dose: 12.5 mg/kg/injection, schedule: Q01DX009 (ip), vehicle: saline with Tween-80) 10 of 10; (dose: 25.0 mg/kg/injection, schedule: Q01DX009 (ip), vehicle: saline with Tween-80) 6 of 10 and 9 of 10.
As for `CCCCCCCCCCCCCCCCCC[N+](C)(C)c1nc(Cl)nc(Cl)n1`, the survivor count reads like this: under setting [8], 10 of 10; (dose: 50.0 mg/kg/injection, schedule: Q01DX009 (ip), vehicle: other) 10 of 10; (dose: 100.0 mg/kg/injection, schedule: Q01DX009 (ip), vehicle: other) 1 of 10; (dose: 200.0 mg/kg/injection, schedule: Q01DX009 (ip), vehicle: other) 0 of 10; (dose: 400.0 mg/kg/injection, schedule: Q01DX009 (ip), vehicle: other) 0 of 10.
For the compound `CCCC(NC(=O)C(Cc1ccccc1)NC(=O)OCc1ccccc1)C(=O)O` (stereo not drawn) (Cbz-Phe-[Nva]-OH; configuration not given here), the survivor count by setting is: (dose: 200.0 mg/kg/injection, schedule: Q01DX009 (ip), vehicle: saline with Tween-80) 10 of 10; under setting [9], 9 of 10.
For the compound `CC(=O)NC1=C(N2CC2)C(=O)C(NC(C)=O)=C(N2CC2)C1=O`, the T/C (dose: 0.25 mg/kg/injection, schedule: Q01DX009 (ip), vehicle: saline) was 128 % of control; the T/C (dose: 0.5 mg/kg/injection, schedule: Q01DX005 (ip), vehicle: saline with Tween-80) is 125 % of control; the T/C (dose: 0.5 mg/kg/injection, schedule: Q01DX009 (ip), vehicle: saline with Tween-80) is 125 % of control; the T/C (dose: 1.0 mg/kg/injection, schedule: Q01DX009 (ip), vehicle: saline with Tween-80) is 129 and 131 % of control; the T/C (dose: 2.0 mg/kg/injection, schedule: Q01DX005 (ip), vehicle: saline with Tween-80) was 140 % of control (2×). Also, the survivor count is, setting by setting: (dose: 0.5 mg/kg/injection, schedule: Q01DX009 (ip), vehicle: saline) 8 of 10; (dose: 1.0 mg/kg/injection, schedule: Q01DX009 (ip), vehicle: saline) 6 of 10; (dose: 2.0 mg/kg/injection, schedule: Q01DX009 (ip), vehicle: saline with Tween-80) 10 of 10; (dose: 2.0 mg/kg/injection, schedule: Q01DX009 (ip), vehicle: saline) 3 of 10; (dose: 4.0 mg/kg/injection, schedule: Q01DX005 (ip), vehicle: saline with Tween-80) 10 of 10.
On to `CC(C)CC(C)(c1ccc(O)cc1)c1ccc(O)cc1`, for which, under setting [9], the survivor count is 0 of 10.
For `CCN(CC)CCNc1ccc([N+](=O)[O-])cc1[N+](=O)[O-]`, the survivor count under setting [7] was 6 of 9.
As for `CN(C)CCCNc1cc(O)c2c(c1O)C(=O)c1ccccc1C2=O`, the survivor count is given as 8 of 10 (dose: 200.0 mg/kg/injection, schedule: Q01DX009 (ip), vehicle: water) and 8 of 10 (dose: 400.0 mg/kg/injection, schedule: Q01DX009 (ip), vehicle: water).
As to `c1ccc(N/N=C2/c3ccccc3CC23OC3c2ccccc2)cc1` (stereo not drawn), under setting [2], the survivor count was 8 of 8.
